Data as given in patent publication US5877280.

Target: T1, MutS (Apy MutS) (Aquifex pyrophilus) (UniProt P70755)
T1 sequence (limits assumed): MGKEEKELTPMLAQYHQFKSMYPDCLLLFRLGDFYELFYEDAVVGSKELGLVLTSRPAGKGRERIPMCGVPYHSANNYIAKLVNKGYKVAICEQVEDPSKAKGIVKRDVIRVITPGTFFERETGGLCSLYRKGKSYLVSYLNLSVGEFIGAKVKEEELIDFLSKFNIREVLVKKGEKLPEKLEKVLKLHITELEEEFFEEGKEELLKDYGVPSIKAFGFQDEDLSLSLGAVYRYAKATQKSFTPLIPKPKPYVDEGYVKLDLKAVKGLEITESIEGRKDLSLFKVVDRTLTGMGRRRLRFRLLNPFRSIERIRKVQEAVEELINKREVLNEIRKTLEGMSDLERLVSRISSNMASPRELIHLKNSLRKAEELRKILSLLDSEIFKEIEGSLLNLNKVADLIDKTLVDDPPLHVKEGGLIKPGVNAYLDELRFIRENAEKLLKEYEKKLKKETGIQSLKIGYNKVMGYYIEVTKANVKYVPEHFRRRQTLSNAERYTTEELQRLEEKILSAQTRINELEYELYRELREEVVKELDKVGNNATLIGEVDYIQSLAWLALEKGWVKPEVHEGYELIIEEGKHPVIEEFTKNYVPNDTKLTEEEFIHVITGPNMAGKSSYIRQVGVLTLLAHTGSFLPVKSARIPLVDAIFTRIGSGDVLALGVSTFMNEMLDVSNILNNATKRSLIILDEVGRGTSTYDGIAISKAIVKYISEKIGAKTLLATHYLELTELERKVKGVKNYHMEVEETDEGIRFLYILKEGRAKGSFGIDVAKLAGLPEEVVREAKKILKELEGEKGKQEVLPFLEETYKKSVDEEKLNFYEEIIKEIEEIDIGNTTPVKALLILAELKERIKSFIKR
Experiment: EMSA
Conditions: non-specific complexes with homoduplex competed away by excess lambda DNA; purified recombinant protein; protein details: expressed in E. coli from pDG182/pDG184 or pET16b; only the site is given

Q: Does “GGGGATCCTC (double strand) [Homoduplex PCR product (pUC19 type, 337-340 bp)]” bind?
A: binds more weakly

A weaker result is weaker than the reference pair of the same experiment. Tags and fusion partners may be left off the protein sequences shown.
